Experimental data from PMC5870190, “A three-in-one-bullet for oesophageal cancer: replication fork collapse, spindle attachment failure and enhanced radiosensitivity generated by a ruthenium(II) metallo-intercalator” (Chemical Science, 2017).

Tested on: OE21 cells
Experiment: Cellular and nuclear ruthenium content by ICP-MS, OE21 cells
Type: cell-based, human
Conditions: OE21, 20 μM, 24 h

[Ru(phen)2(dppz)]^2+
lower average cellular Ru content than cells treated with Ru1: 13 fold
reduction in nuclear Ru content than cells treated with Ru1: 28 fold
